Reference: paper PMC5645986
Results are given in words; binding and its absence hold for the method and conditions named. Binding seen in cells or lysates may run through a third protein. Some binding calls cover weakened binding; strength is not graded here.

By UniProt entry, the sequences of proteins in these tests, tags left out.
UniProt Q04206: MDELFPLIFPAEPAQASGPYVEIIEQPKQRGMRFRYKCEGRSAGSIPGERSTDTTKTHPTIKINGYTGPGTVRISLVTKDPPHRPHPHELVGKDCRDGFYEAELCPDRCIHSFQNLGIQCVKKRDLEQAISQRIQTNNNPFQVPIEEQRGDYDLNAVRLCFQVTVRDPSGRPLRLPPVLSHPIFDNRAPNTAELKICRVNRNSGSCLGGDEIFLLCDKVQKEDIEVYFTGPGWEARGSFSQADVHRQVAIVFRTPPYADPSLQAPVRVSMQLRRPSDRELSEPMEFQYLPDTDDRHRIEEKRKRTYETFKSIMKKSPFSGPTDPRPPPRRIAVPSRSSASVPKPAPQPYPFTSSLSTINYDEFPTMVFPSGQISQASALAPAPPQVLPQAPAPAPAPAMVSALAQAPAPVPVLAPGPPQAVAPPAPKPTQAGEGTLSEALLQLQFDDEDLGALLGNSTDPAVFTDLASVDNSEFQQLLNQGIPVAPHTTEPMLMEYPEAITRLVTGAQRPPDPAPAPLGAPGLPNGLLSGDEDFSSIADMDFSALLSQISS
UniProt Q9P286: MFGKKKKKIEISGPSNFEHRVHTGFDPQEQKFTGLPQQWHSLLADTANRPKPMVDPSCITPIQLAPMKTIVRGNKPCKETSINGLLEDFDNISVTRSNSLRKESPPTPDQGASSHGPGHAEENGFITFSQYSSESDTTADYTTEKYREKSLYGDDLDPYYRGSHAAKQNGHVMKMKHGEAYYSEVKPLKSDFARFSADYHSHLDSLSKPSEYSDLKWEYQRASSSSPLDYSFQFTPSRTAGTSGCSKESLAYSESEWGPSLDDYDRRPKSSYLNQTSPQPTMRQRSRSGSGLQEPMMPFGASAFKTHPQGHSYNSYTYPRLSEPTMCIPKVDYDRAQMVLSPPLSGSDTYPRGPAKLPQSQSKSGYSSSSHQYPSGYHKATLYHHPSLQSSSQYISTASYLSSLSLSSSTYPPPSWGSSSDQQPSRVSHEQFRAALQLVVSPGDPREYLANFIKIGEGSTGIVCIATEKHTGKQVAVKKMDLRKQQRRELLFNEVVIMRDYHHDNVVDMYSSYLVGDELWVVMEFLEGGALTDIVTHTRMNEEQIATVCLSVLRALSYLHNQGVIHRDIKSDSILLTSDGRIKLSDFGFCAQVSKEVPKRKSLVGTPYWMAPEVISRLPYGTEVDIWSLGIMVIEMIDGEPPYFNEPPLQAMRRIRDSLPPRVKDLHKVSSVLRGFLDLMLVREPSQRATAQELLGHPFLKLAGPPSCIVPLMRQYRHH

Experiments:
[1] = molecular target: p65 subunit of nuclear factor-kappaB (NF-κB), expressed from pcDNA3.1-p65 (UniProt Q04206); experiment: co-IP; MDA-MB-231 cells transfected with the plasmids; RIPA lysates (1000 μg) with protease/phosphatase inhibitors precipitated 12-16 h with anti-p65 (Rabbit IgG as control), Protein A/G beads 2 h at 4 °C; blotted with anti-Myc and anti-p65
[2] = molecular target: p65 subunit of nuclear factor-kappaB (NF-κB), endogenous (human (endogenous in MDA-MB-231)) (UniProt Q04206); experiment: as above

binding [1]: binds
binding [2]: binds
Substance: p21cdc42/rac1-activated kinase 5 (PAK5), Myc-tagged (from UniProt Q9P286 1-719) (enzyme)
